Paper PMC11995443
These are yes or no findings as the source states them, for the method shown. For part of these data: Binding calls can cover weak binding; strength is not graded here. For part of these data: Binding seen in cells or lysates may run through a third protein. For part of these data: Where a sequence is shown, tags or fusion partners need not be part of it. Blank lines part the entries; values can stand above or below the molecule they belong to.

Chains of the proteins cited; added tags and fusions are not shown. Lines headed by an entry give the natural chain unless they say otherwise; changes in a name come on top.
UniProt P43297: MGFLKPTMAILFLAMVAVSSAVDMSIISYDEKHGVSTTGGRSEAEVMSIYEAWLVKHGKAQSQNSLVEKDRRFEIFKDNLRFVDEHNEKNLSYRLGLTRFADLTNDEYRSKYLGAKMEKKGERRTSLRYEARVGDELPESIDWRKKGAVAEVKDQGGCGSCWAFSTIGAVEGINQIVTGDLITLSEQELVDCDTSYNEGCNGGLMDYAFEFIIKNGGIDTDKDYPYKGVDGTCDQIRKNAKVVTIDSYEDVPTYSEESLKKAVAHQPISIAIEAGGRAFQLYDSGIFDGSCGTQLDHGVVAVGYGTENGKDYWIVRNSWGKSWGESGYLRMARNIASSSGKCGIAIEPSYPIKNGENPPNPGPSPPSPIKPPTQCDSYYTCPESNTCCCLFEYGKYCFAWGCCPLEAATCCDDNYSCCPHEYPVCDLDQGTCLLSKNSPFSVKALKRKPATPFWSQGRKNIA

Experiments:
[1] = target: T1, ovarian tumor domain (OTU)-containing deubiquitilating enzyme 2 (OTU2), bait in pGBKT7 (A. thaliana) (UniProt Q9LPT6); assay: two-hybrid; OTU2 (or its truncated derivatives) in pGBKT7 as bait, candidates in pGADT7 as prey; Y2H golden yeast cells; SD-Trp-Leu-His-Ade with X-alpha-Gal and aureobasidin A
T1 sequence: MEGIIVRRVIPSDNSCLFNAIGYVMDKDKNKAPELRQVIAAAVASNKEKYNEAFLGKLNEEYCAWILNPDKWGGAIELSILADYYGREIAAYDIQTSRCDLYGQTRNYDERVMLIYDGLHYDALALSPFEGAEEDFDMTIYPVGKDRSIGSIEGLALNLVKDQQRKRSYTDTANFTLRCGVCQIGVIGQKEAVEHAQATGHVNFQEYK

[2] = target: T2, OTU2n (11-123 aa) (A. thaliana) (UniProt Q9LPT6); assay: as above
T2 sequence: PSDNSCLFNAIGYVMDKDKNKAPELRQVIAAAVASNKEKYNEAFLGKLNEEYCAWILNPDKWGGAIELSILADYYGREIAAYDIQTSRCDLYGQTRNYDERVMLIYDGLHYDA

[3] = target: T3, OTU2c (124-208 aa) (A. thaliana) (UniProt Q9LPT6); assay: as above
T3 sequence: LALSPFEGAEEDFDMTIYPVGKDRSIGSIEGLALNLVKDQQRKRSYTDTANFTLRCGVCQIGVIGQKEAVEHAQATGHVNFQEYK

[4] = target: RD21A in the first multiple cloning site of pBridge (A. thaliana) (UniProt P43297); assay: two-hybrid; yeast three-hybrid: RD21A in the first site of pBridge, OTU2 in the second site or not, PbE3-2 without signal peptide in pGADT7; SD-Trp-Leu-His-Met with X-alpha-Gal and aureobasidin A
RD21A-FLAG (A. thaliana) = RD21A-FLAG (A. thaliana) (UniProt P43297); assay: co-IP; RD21A-FLAG and PbE3-2-GFP co-expressed with OTU2-Myc or Ev-Myc in N. benthamiana leaves; IP with anti-GFP agarose beads, detection with anti-FLAG antibody

Molecule: PbE3-2 without a signal peptide, prey in pGADT7 (Plasmodiophora brassicae) (enzyme)
binding [1]: no binding

binding [2]: no binding
binding [1]: binds
binding [3]: binds
Molecule: RD21A without signal peptide, prey in pGADT7 (from UniProt P43297) (enzyme)

binding [4]: binds
B1: OTU2 in the second multiple cloning site of pBridge (enzyme, UniProt Q9LPT6 1-208)
chain: MEGIIVRRVIPSDNSCLFNAIGYVMDKDKNKAPELRQVIAAAVASNKEKYNEAFLGKLNEEYCAWILNPDKWGGAIELSILADYYGREIAAYDIQTSRCDLYGQTRNYDERVMLIYDGLHYDALALSPFEGAEEDFDMTIYPVGKDRSIGSIEGLALNLVKDQQRKRSYTDTANFTLRCGVCQIGVIGQKEAVEHAQATGHVNFQEYK

binding (RD21A-FLAG (A. thaliana)): binds
B2: OTU2-Myc (enzyme, UniProt Q9LPT6 1-208)
chain: MEGIIVRRVIPSDNSCLFNAIGYVMDKDKNKAPELRQVIAAAVASNKEKYNEAFLGKLNEEYCAWILNPDKWGGAIELSILADYYGREIAAYDIQTSRCDLYGQTRNYDERVMLIYDGLHYDALALSPFEGAEEDFDMTIYPVGKDRSIGSIEGLALNLVKDQQRKRSYTDTANFTLRCGVCQIGVIGQKEAVEHAQATGHVNFQEYK
